Binding data for four molecules are collected here from patent CN110156894A.

Amino acid sequences for entries named in this document (tags omitted). A change or cut given only in a name is not applied to a line headed by its entry. Residues count along the entry.
UniProt Q9H6X2: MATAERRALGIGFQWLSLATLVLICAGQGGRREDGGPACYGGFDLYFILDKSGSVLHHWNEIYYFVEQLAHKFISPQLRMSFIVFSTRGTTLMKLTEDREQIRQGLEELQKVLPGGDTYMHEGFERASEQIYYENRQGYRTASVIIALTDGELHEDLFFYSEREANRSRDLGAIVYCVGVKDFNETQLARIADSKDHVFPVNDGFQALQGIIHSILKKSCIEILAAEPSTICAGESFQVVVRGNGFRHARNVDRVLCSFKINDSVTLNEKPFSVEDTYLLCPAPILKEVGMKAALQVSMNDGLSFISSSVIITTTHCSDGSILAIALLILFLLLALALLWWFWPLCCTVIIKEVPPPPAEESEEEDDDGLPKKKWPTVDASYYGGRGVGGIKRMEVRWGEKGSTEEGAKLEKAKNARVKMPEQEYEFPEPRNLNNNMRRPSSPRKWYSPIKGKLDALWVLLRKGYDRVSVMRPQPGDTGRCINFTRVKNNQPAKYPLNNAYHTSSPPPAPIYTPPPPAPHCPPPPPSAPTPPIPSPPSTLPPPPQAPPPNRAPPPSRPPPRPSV
TEM8 on TEM8过表达细胞: residues 33-564 of Q9H6X2
重组TEM8蛋白(义翘神州): residues 33-321 of Q9H6X2

Positions count from the first letter of the chain named. Results are given in words; binding and its absence hold for the method and conditions named. Some binding calls cover weakened binding; strength is not graded here.

Test [1] deals with TEM8 on TEM8过表达细胞 (UniProt Q9H6X2). The test is described as follows: cell-based assay on TEM8 stable CHO-K1 cells, Eu-labelled goat anti-mouse IgG.
Another test has as its target 重组TEM8蛋白(义翘神州) (human) (UniProt Q9H6X2). The test is described as follows: ELISA, hybridoma supernatant on plate-bound recombinant TEM8, goat anti-mouse IgG-HRP.
Test [2] deals with TEM8 on TEM8过表达细胞 (UniProt Q9H6X2). The test is described as follows: phage scFv binding to TEM8 overexpressing cells, anti-M13-HRP, OD450.

B1: TEM8鼠源抗体 (antibody, V domains shown)
VH: EVQLQESGPSLVKPSQTLSLTCSVTGDSITSDYWNWIRKFPGNKLEYMGYISYSGNTYTNPSLKSRISITRDTSKNQYYLQLNSMTTEDTATYYCARYKTIDSSFDVWGAGTTVTVSS
VL: DIVMTQSPATLSVTPGDRVSLSCRASQNIRDFLHWYQQKSHESPRLLIKYASQSISGIPSRFSGSGSGSDFSLNINSVEPEDVGVYYCQNGHSFPYTFGGGTKLEIK
In the case of B1, the binding entry with TEM8 on TEM8过表达细胞 [1] and with 重组TEM8蛋白(义翘神州) (human) was “binds” throughout.

B2: HUT103 scFv phage clone (scFv, V domains shown)
VH: EVQLQESGPGLVKPSETLSLTCTVTGDSISSDYWNWVRQAPGQRLEWMGYISYSGNTYTNPSLKSRITINRDTSKNQFSLQLNSVTPEDTAVYYCARYKTITSVLDVWGQGTTVTVSS
VL: EIVMTQSPATLSVSPGERATLSCRASQNIRDFLHWYQQKPGQAPRLLIYYASQSISGIPARFSGSGSGTDFTLTISSLEPEDFAVYYCQNGHSFPYTFGGGTKVEIK
For the molecule B2, in the test with TEM8 on TEM8过表达细胞 [2], the binding result was “binds”.

B3: HUT105 scFv phage clone (scFv, V domains shown)
VH: B2 VH with V104M, L105F
VL: B2 VL
Take B3: the binding result in the test with TEM8 on TEM8过表达细胞 [2] was “binds”.

B4: HUT104 scFv phage clone (scFv, V domains shown)
VH: B2 VH with V104A, L105F
VL: B2 VL
In the case of B4, the binding result in the test with TEM8 on TEM8过表达细胞 [2] is “binds”.
